Measured values reported in PMC10604066.
No constants are given. Whether binding was seen depends on the method and setting. Binding seen in cells or lysates may run through a third protein. A yes stands for co-enrichment or nearness to the bait. Other partners may have been found. Tags and fused reporters may be left off the sequences shown.

Sequences of proteins named here, by UniProt entry; tags and fusion partners are left off. A change or cut given only in a name is not applied to a line headed by its entry. Residues count along the entry.
UniProt Q9S831, residues 45-143: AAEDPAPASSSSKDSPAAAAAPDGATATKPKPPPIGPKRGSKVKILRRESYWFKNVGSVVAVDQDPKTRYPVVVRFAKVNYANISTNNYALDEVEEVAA
UniProt P56757: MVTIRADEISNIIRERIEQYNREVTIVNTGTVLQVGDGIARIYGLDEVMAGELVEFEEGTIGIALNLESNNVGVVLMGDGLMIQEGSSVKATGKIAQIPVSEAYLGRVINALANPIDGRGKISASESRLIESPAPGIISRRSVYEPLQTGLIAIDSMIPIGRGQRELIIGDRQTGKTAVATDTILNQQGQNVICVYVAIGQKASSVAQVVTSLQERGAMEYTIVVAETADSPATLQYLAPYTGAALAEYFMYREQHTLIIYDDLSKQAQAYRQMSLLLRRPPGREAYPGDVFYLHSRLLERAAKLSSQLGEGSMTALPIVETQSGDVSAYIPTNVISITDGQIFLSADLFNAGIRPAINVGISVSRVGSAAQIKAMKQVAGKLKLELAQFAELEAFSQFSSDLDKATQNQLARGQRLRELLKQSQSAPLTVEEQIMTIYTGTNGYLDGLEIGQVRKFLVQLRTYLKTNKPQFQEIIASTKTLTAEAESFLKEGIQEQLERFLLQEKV
UniProt Q01667, residues 36-241: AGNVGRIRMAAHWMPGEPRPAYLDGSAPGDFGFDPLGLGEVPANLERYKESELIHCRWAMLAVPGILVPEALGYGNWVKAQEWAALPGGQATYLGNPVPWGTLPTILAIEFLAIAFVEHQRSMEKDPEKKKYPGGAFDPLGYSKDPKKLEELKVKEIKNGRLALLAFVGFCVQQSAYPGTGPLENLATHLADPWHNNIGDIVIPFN
UniProt P56773: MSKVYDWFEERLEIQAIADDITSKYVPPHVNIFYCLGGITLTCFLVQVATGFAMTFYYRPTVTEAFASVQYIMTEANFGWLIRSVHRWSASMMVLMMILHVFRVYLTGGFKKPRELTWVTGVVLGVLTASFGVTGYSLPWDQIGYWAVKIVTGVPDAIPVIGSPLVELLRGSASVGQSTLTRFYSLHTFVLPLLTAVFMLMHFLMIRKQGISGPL
UniProt Q8W4H7: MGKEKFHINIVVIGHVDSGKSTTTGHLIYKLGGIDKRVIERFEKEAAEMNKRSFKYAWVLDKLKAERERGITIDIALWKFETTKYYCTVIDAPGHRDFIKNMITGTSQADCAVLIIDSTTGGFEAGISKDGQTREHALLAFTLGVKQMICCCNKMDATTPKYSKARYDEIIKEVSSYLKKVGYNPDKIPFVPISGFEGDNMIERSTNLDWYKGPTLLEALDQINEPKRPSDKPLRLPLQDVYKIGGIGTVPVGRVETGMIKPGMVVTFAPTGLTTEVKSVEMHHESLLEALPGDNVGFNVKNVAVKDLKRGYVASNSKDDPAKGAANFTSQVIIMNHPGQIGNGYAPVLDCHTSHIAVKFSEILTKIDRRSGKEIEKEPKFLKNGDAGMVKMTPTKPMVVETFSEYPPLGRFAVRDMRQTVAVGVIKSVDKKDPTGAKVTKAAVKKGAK
UniProt P56766: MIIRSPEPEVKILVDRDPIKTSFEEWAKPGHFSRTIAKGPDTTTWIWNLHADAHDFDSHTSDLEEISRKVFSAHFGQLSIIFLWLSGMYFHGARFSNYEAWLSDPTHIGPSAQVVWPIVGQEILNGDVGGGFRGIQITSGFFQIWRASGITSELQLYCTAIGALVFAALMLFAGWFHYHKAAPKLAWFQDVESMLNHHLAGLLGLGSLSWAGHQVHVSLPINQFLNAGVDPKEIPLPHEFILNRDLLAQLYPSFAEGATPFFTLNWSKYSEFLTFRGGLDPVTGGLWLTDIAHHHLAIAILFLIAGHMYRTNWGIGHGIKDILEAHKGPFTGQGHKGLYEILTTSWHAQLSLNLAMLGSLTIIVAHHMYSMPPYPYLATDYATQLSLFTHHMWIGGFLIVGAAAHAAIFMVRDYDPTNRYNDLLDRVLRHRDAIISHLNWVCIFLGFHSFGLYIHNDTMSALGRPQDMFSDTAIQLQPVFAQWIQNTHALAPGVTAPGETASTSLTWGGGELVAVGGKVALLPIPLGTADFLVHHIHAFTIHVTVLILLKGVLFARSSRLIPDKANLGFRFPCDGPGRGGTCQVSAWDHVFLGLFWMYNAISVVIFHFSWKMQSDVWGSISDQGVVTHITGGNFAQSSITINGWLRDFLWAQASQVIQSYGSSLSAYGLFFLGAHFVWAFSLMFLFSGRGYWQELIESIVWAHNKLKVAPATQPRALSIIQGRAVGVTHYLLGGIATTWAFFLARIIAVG
UniProt P56767: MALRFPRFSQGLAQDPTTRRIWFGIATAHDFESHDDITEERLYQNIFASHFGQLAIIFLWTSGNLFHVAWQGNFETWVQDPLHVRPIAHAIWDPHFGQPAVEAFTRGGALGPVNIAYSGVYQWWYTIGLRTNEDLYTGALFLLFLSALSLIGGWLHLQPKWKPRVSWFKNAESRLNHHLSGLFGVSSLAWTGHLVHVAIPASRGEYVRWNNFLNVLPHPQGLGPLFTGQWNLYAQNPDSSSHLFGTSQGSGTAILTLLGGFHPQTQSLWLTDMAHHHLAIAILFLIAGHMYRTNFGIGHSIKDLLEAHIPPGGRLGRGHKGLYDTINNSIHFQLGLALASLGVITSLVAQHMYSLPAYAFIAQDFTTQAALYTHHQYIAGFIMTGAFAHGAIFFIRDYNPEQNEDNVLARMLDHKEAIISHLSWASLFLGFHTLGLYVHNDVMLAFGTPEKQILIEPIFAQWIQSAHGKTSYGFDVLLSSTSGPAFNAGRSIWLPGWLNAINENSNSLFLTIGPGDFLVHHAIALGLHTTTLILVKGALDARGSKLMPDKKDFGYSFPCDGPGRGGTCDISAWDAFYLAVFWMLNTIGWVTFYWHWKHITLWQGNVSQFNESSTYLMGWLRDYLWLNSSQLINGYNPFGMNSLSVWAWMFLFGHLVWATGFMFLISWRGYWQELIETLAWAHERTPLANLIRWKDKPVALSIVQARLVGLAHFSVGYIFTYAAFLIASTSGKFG
UniProt Q9SYW8, residues 44-257: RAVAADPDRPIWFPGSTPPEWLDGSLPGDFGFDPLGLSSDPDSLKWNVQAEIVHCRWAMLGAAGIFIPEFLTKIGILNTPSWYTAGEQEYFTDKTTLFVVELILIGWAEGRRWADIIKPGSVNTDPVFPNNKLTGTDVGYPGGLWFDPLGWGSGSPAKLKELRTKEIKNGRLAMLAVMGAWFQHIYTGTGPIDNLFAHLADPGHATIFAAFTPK
UniProt Q9SY97, residues 40-273: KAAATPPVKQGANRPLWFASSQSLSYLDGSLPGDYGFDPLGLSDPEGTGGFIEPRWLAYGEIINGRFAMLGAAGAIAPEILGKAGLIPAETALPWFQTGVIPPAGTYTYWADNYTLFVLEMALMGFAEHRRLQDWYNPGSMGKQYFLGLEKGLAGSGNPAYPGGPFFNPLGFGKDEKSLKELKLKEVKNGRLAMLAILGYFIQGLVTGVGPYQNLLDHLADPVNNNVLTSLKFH
UniProt Q9S7H1, residues 46-208: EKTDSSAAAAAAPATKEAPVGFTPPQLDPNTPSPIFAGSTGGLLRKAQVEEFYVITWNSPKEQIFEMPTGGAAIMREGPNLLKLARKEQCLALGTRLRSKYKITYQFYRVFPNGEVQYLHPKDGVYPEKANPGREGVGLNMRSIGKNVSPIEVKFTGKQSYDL
UniProt P49107, residues 87-171: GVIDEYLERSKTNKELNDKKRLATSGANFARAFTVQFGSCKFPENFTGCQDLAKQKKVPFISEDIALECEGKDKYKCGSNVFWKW
UniProt Q9S7N7, residues 61-160: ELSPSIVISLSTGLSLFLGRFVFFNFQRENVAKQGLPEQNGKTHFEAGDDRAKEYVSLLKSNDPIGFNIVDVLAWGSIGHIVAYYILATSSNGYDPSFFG
UniProt Q949Q5, residues 52-140: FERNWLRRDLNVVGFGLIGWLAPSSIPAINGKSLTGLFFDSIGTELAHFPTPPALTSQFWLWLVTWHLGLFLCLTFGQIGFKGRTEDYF
UniProt Q9C944: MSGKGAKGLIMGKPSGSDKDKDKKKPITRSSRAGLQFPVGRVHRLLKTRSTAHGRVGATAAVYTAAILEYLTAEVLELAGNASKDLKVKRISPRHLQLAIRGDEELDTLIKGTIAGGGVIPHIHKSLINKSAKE

T1: Thylakoid rhodanese-like protein (TROL) with HA and FLAG tags (TROL-HA-FLAG) (Arabidopsis thaliana) (UniProt Q9M158)
T1 sequence: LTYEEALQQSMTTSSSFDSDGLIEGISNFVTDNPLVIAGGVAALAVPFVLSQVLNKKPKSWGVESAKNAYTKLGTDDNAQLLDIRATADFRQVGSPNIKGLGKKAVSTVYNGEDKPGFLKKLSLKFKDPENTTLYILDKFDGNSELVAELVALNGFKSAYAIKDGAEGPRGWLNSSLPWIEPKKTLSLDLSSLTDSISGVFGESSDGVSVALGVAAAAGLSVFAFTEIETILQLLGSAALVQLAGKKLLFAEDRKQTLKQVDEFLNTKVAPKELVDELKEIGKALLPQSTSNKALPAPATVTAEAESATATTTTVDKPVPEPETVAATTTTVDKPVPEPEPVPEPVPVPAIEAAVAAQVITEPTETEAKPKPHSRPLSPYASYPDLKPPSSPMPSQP

B1: Probable plastid-lipid-associated protein 8, chloroplastic (protein, UniProt Q941D3 53-239)
chain: SVSAPNVELRTGPDDLISTLLSKVANSDGGVTLSPEQHKEVAQVAGELQKYCVKEPVKNPLIFGDWEVVYCSRPTSPGGGYRSVIGRLFFKTKEMIQAIDAPDIVRNKVSINAFGFLDGDVSLTGKLKALDSEWVQVIFEPPEIKVGSLEFKYGFESEVKLRITYVDEKLRLGLGSKGSLFVFRRRQ
B2: Protein plastid transcriptionally active 16, chloroplastic (protein, UniProt Q9STF2 20-510)
chain: FNRRKPRLTVWAKQTAFQLGKTKGDDDSEGKQKGKNPFQFDFGKLPDMKSLIPVVTNPSTGLVFGNNRKKDPGTIFVAGATGQAGIRIAQTLLQRGFSVRAGVPDLGAAQDLARVAATYKILSNDEVKRLNAVQSPFQDAESIAKAIGNATKVVVTVGATENGPDAQVSTSDALLVVQAAELAGVSHVAIVYDGTISGSTYNVLDGITSFFGNLFAKSQPLTISDLIEKVAQTDVAYTLIKTSLTEDFSPEKAYNVVVSAEGSNSGSGSSSSEAYKVPKLKIASLVADIFANTAVAENKVVEVSTDPSAPSRPVDELFSVIPEDGRRKVYADAIARERAEEEAKVAADKAREAAEAAKEFEKQMQKLSEKEAEAASLAEDAQQKADAVGVTVDGLFNKAKDISSGLSWNKLGSQFATAIQNASETPKVQVATVRGQAKARNLPPKKAVVKQRPSSPFASKPKEERPKKPEKEVRKVFGGLFKQETIYIDDD
B3: Chlorophyll synthase, chloroplastic (enzyme, UniProt Q38833 58-387)
chain: AAETDTDKVKSQTPDKAPAGGSSINQLLGIKGASQETNKWKIRLQLTKPVTWPPLVWGVVCGAAASGNFHWTPEDVAKSILCMMMSGPCLTGYTQTINDWYDRDIDAINEPYRPIPSGAISEPEVITQVWVLLLGGLGIAGILDVWAGHTTPTVFYLALGGSLLSYIYSAPPLKLKQNGWVGNFALGASYISLPWWAGQALFGTLTPDVVVLTLLYSIAGLGIAIVNDFKSVEGDRALGLQSLPVAFGTETAKWICVGAIDITQLSVAGYLLASGKPYYALALVALIIPQIVFQFKYFLKDPVKYDVKYQASAQPFLVLGIFVTALASQH
B4: ATP-dependent zinc metalloprotease FTSH 1, chloroplastic (enzyme, UniProt Q39102 87-716)
chain: VVDEPASPSVVIESQAVKPSTPSPLFIQNEILKAPSPKSSDLPEGSQWRYSEFLNAVKKGKVERVRFSKDGSVVQLTAVDNRRASVIVPNDPDLIDILAMNGVDISVSEGESSGNDLFTVIGNLIFPLLAFGGLFLLFRRAQGGPGGGPGGLGGPMDFGRSKSKFQEVPETGVSFADVAGADQAKLELQEVVDFLKNPDKYTALGAKIPKGCLLVGPPGTGKTLLARAVAGEAGVPFFSCAASEFVELFVGVGASRVRDLFEKAKSKAPCIVFIDEIDAVGRQRGAGMGGGNDEREQTINQLLTEMDGFSGNSGVIVLAATNRPDVLDSALLRPGRFDRQVTVDRPDVAGRVKILQVHSRGKALGKDVDFDKVARRTPGFTGADLQNLMNEAAILAARRELKEISKDEISDALERIIAGPEKKNAVVSEEKKRLVAYHEAGHALVGALMPEYDPVAKISIIPRGQAGGLTFFAPSEERLESGLYSRSYLENQMAVALGGRVAEEVIFGDENVTTGASNDFMQVSRVARQMIERFGFSKKIGQVAVGGPGGNPFMGQQMSSQKDYSMATADIVDAEVRELVEKAYKRATEIITTHIDILHKLAQLLIEKETVDGEEFMSLFIDGQAELYIS
B5: Ferredoxin--NADP reductase, leaf isozyme 1, chloroplastic (enzyme, UniProt Q9FKW6 50-360)
chain: VTTDTTEAPPVKVVKESKKQEEGIVVNKFKPKNPYTGRCLLNTKITGDDAPGETWHIVFTTEGEVPYREGQSIGVIPEGIDKNGKPHKLRLYSIASSAIGDFGDSKTVSLCVKRLVYTNDGGEIVKGVCSNFLCDLKPGDEAKITGPVGKEMLMPKDPNATIIMLGTGTGIAPFRSFLWKMFFEEHEDYKFNGLAWLFLGVPTSSSLLYKEEFEKMKEKNPDNFRLDFAVSREQTNEKGEKMYIQTRMAEYAEELWELLKKDNTFVYMCGLKGMEKGIDDIMVSLAAKDGIDWLEYKKQLKRSEQWNVEVY
B6: Photosystem II 10 kDa polypeptide, chloroplastic (protein, UniProt P27202 42-140)
chain: SGVKKIKTDKPFGINGSMDLRDGVDASGRKGKGYGVYKYVDKYGANVDGYSPIYNENEWSASGDVYKGGVTGLAIWAVTLAGILAGGALLVYNTSALAQ
B7: UPF0603 protein At1g54780, chloroplastic (protein, UniProt Q9ZVL6 85-285)
chain: SEFNILNDGPPKETYVVDDAGVLSRVTKSDLKKLLSDLEYRKKLRLNFITVRKLTSKADAFEYADQVLEKWYPSIEEGNNKGIVVLITSQKEGAITGGPAFIEAVGENILDATVSENLPVLATDEKYNEAVYSSAKRLVAAIDGQPDPGGPTVKDSKRESNFKTKEETDEKRGQFSLVVGGLLVIAFVVPMAQYFAYVSRK
B8: Ferredoxin--NADP reductase, leaf isozyme 2, chloroplastic (enzyme, UniProt Q8W493 58-369)
chain: ITTETDTPTPAKKVEKVSKKNEEGVIVNRYRPKEPYTGKCLLNTKITADDAPGETWHMVFSHQGEIPYREGQSVGVIADGIDKNGKPHKVRLYSIASSALGDLGNSETVSLCVKRLVYTNDQGETVKGVCSNFLCDLAPGSDVKLTGPVGKEMLMPKDPNATVIMLATGTGIAPFRSFLWKMFFEKHDDYKFNGLAWLFLGVPTTSSLLYQEEFDKMKAKAPENFRVDYAISREQANDKGEKMYIQTRMAQYAAELWELLKKDNTFVYMCGLKGMEKGIDDIMVSLAANDGIDWFDYKKQLKKAEQWNVEVY

Molecular target: T1, Thylakoid rhodanese-like protein (TROL) with HA and FLAG tags (TROL-HA-FLAG) (Arabidopsis thaliana)
Test: affinity purification with mass spectrometry; FLAG/HA tandem affinity purification of TROL-HA-FLAG from thylakoids of TROL OX Arabidopsis solubilised in 1% DDM; anti-FLAG resin overnight at 4 °C, RIPA wash, 3 × FLAG peptide elution, anti-HA resin 1.5 h at 4 °C, elution with 8 M urea and Laemmli buffer; GeLC-MS/MS; three independent trials, protein threshold 99.9%, peptide threshold 95%

binding, binds:
APE1 (Arabidopsis thaliana)
AT4g28750 (from UniProt Q9S831 45-143)
ATP synthase subunit alpha, chloroplastic (from UniProt P56757 1-507)
Actin-7 (from UniProt P53492 1-377)
CaS (Arabidopsis thaliana)
Chlorophyll a-b binding protein 3, chloroplastic (from UniProt Q9S7M0 23-265)
Chlorophyll a-b binding protein 4, chloroplastic (Arabidopsis thaliana)
Chlorophyll a-b binding protein 6, chloroplastic (from UniProt Q01667 36-241)
Chlorophyll a-b binding protein, chloroplastic (GN = AXX17_At1g16590) (Arabidopsis thaliana)
Cytochrome b6 (from UniProt P56773 1-215)
GTP binding Elongation factor Tu family protein (GN = At1g07930) (from UniProt Q8W4H7 1-449)
HCF244 (Arabidopsis thaliana)
PSAF (Arabidopsis thaliana)
Photosystem I P700 chlorophyll a apoprotein A1 (from UniProt P56766 1-750)
Photosystem I P700 chlorophyll a apoprotein A2 (from UniProt P56767 1-734)
Photosystem I chlorophyll a/b-binding protein 2, chloroplastic (from UniProt Q9SYW8 44-257)
Photosystem I chlorophyll a/b-binding protein 3-1, chloroplastic (from UniProt Q9SY97 40-273)
Photosystem I reaction center subunit II-1, chloroplastic (from UniProt Q9S7H1 46-208)
Photosystem I reaction center subunit N, chloroplastic (from UniProt P49107 87-171)
Photosystem I reaction center subunit V, chloroplastic (from UniProt Q9S7N7 61-160)
Photosystem I subunit O (from UniProt Q949Q5 52-140)
Probable histone H2A variant 3 (from UniProt Q9C944 1-134)
Tubulin beta chain (GN = AXX17_At5g62240) (Arabidopsis thaliana)
B1
B2
B3
B4
B5
B6
B7
B8
